Chains of the proteins cited; added tags and fusions are not shown.
UniProt Q16531: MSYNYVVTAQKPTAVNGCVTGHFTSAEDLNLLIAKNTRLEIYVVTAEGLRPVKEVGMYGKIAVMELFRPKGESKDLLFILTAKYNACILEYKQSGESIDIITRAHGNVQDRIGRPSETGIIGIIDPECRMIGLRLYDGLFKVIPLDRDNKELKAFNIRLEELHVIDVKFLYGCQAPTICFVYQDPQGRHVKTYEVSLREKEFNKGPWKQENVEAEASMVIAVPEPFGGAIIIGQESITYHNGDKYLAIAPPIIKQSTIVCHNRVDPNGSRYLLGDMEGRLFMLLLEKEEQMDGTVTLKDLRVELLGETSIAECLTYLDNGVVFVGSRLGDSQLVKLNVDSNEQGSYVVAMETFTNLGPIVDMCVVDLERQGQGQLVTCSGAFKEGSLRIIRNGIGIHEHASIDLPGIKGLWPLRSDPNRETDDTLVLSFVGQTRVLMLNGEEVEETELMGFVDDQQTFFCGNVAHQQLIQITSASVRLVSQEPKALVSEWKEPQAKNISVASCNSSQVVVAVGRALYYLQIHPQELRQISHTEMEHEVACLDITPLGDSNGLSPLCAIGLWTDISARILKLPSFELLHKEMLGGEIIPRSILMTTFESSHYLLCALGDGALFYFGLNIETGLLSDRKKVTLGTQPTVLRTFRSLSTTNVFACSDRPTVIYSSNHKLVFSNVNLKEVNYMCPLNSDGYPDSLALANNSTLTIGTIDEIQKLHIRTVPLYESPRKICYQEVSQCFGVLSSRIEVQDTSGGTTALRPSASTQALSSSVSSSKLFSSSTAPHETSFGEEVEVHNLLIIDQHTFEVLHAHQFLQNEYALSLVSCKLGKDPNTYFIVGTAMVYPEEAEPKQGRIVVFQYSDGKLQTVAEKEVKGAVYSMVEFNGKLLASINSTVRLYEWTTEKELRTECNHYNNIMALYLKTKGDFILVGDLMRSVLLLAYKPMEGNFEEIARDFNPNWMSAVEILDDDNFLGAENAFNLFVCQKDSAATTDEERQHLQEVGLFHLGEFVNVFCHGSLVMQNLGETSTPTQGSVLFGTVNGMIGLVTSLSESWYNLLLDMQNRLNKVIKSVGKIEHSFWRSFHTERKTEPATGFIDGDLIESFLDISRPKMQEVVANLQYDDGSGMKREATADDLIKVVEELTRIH
UniProt P78527: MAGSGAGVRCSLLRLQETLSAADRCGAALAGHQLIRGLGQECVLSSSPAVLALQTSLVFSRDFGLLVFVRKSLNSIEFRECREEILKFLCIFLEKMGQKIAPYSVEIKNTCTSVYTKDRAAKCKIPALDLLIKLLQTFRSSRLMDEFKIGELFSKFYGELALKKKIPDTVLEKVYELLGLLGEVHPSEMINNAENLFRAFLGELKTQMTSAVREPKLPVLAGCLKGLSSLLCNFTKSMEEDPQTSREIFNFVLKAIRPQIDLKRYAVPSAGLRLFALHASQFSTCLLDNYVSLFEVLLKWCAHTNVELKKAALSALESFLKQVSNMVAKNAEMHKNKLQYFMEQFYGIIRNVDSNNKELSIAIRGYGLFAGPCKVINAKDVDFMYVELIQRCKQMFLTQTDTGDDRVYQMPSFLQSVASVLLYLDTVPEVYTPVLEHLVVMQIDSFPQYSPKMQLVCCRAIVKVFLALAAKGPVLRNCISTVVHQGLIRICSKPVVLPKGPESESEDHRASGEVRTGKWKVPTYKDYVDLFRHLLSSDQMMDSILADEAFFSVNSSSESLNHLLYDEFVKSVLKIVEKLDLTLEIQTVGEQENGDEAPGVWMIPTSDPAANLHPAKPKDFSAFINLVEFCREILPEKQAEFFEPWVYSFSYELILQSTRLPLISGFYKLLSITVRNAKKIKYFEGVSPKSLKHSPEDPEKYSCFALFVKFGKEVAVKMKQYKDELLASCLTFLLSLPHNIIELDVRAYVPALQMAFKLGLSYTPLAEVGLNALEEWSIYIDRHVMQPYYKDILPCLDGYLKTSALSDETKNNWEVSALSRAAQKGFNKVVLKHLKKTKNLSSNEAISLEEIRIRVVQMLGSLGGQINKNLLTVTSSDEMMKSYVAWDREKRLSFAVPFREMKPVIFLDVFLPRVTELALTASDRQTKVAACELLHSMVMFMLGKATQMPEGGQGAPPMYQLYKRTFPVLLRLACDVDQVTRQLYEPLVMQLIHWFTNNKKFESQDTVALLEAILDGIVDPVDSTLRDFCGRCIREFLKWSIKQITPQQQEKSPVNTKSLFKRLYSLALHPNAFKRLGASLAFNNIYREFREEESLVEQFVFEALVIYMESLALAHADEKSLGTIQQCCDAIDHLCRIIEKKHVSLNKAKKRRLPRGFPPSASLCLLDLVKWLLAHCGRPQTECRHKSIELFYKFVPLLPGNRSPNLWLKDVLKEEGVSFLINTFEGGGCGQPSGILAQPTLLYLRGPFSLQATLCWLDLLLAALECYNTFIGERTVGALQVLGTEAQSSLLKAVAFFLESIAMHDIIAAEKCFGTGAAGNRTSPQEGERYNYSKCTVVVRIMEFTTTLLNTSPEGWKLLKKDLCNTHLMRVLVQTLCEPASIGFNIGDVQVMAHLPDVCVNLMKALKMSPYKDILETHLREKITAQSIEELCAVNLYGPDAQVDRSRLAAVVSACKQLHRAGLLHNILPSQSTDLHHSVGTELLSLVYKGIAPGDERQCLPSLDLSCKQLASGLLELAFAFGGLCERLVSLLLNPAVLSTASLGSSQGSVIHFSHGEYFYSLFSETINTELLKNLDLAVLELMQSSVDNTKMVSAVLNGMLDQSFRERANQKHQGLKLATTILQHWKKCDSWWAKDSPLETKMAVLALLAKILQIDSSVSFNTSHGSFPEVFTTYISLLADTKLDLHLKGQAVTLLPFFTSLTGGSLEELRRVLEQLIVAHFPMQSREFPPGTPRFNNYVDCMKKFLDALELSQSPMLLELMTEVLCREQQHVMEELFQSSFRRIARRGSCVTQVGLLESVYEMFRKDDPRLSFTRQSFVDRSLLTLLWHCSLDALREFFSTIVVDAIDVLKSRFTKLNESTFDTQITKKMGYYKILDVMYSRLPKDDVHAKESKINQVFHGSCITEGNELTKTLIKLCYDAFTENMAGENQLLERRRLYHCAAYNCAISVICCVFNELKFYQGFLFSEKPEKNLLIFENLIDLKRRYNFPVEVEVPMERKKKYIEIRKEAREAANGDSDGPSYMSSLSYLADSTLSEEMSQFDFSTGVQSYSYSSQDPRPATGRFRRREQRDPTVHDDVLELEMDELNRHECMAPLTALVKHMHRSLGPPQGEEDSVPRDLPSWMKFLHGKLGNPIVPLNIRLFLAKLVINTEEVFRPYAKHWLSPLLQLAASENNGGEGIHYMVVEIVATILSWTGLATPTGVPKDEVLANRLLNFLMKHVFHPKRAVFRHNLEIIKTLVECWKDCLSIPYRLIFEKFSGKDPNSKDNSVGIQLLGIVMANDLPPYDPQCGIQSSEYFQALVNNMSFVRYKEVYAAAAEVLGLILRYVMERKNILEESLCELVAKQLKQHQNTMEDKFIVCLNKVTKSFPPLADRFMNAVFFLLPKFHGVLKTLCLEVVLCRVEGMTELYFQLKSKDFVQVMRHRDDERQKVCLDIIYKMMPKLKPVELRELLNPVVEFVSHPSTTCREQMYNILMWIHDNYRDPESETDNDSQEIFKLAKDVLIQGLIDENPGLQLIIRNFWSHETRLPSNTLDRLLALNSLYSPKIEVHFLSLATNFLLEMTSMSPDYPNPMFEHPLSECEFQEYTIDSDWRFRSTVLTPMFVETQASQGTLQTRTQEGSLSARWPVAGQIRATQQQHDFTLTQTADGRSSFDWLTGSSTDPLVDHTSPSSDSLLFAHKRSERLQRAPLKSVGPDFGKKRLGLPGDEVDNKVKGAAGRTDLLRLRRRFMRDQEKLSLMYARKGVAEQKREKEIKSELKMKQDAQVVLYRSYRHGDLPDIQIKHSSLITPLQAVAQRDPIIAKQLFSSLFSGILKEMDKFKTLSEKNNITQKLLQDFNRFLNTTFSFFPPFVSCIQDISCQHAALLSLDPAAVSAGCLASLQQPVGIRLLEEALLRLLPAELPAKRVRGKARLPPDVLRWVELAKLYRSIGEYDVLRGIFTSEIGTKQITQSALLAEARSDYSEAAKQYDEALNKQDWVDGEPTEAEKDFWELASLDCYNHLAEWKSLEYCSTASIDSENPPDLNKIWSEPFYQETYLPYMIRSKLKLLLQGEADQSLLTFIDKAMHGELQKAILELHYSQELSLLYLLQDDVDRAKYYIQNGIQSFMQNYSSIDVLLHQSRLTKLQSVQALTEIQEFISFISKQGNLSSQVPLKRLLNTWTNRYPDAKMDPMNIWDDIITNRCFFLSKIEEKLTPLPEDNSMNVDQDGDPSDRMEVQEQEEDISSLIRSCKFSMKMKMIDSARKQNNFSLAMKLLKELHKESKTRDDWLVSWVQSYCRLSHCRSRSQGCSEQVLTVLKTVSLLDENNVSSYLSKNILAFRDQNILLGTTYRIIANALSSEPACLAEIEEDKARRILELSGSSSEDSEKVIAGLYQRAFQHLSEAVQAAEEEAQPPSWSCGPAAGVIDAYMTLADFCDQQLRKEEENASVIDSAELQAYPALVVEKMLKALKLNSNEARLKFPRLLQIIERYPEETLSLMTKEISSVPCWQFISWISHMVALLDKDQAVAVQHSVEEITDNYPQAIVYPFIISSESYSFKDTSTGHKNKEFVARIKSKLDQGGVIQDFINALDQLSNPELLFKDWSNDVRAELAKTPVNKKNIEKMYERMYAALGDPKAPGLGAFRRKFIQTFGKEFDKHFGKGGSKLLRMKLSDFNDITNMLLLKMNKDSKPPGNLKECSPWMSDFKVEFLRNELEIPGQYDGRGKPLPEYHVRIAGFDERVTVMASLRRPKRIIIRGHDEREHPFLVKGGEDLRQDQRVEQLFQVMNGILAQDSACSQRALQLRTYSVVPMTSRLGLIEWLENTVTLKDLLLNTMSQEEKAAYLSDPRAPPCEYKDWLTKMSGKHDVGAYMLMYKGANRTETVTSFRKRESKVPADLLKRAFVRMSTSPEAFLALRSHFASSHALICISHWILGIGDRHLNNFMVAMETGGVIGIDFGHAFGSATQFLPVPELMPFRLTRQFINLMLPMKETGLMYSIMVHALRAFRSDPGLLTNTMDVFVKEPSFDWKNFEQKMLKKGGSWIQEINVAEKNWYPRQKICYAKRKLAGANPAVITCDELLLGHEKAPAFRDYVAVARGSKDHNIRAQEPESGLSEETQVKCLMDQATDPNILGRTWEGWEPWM
UniProt Q13547: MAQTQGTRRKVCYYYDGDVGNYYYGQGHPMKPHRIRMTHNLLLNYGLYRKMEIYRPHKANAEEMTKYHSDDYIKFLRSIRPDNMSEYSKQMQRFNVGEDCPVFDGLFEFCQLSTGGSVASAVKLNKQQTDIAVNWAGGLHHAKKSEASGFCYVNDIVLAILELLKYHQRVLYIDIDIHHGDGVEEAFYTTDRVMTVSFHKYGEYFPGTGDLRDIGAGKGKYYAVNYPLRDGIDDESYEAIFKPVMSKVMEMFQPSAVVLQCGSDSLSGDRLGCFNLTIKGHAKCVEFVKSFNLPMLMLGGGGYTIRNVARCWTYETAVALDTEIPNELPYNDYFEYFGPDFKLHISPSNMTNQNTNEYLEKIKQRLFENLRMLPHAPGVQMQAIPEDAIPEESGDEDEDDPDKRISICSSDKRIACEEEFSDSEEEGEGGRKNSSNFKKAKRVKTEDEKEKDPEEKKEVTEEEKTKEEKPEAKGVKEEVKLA
UniProt Q92769: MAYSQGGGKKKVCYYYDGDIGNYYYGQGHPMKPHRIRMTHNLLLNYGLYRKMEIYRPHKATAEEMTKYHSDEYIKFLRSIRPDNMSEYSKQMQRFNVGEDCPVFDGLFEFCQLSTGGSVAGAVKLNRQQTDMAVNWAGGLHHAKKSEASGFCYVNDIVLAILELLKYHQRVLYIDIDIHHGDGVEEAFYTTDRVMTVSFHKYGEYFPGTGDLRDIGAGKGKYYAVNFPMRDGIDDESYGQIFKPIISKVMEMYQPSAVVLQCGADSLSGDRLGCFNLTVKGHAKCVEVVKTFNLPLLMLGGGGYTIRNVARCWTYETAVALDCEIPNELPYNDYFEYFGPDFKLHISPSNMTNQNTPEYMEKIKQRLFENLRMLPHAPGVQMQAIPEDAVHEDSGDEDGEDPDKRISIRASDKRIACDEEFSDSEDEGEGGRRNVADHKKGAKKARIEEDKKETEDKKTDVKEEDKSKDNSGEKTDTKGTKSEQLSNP

In publication doi:10.1101/2020.01.09.900548:

T1: FLAG-tagged ZNF704 (FLAG-ZNF704), stably expressed in MDA-MB-231 cells (human) (UniProt Q6ZNC4)
T1 sequence: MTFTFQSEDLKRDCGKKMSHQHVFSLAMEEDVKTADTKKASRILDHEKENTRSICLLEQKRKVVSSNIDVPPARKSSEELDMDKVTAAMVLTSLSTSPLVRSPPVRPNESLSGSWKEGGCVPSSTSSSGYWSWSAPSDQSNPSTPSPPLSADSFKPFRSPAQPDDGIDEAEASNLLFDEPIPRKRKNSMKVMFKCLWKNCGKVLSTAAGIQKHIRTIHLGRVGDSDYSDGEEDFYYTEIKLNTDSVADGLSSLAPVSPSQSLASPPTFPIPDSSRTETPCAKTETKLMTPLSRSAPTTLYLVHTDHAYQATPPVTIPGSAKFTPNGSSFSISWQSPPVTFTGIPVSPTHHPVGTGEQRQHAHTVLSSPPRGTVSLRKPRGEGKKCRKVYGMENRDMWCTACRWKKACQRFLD


target: T1, FLAG-tagged ZNF704 (FLAG-ZNF704), stably expressed in MDA-MB-231 cells (human); test: affinity purification with mass spectrometry

Molecule	binding
DDB1, endogenous in MDA-MB-231 cells (from UniProt Q16531 1-1140)	binds
PRKDC, endogenous in MDA-MB-231 cells (from UniProt P78527 1-4128) (enzyme)	binds
SAP130, endogenous in MDA-MB-231 cells (protein, UniProt Q9H0E3 1-1048) MGPPRHPQAGEIEAGGAGGGRRLQVEMSSQQFPRLGAPSTGLSQAPSQIANSGSAGLINPAATVNDESGRDSEVSAREHMSSSSSLQSREEKQEPVVVRPYPQVQMLSTHHAVASATPVAVTAPPAHLTPAVPLSFSEGLMKPPPKPTMPSRPIAPAPPSTLSLPPKVPGQVTVTMESSIPQASAIPVATISGQQGHPSNLHHIMTTNVQMSIIRSNAPGPPLHIGASHLPRGAAAAAVMSSSKVTTVLRPTSQLPNAATAQPAVQHIIHQPIQSRPPVTTSNAIPPAVVATVSATRAQSPVITTTAAHATDSALSRPTLSIQHPPSAAISIQRPAQSRDVTTRITLPSHPALGTPKQQLHTMAQKTIFSTGTPVAAATVAPILATNTIPSATTAGSVSHTQAPTSTIVTMTVPSHSSHATAVTTSNIPVAKVVPQQITHTSPRIQPDYPAERSSLIPISGHRASPNPVAMETRSDNRPSVPVQFQYFLPTYPPSAYPLAAHTYTPITSSVSTIRQYPVSAQAPNSAITAQTGVGVASTVHLNPMQLMTVDASHARHIQGIQPAPISTQGIQPAPIGTPGIQPAPLGTQGIHSATPINTQGLQPAPMGTQQPQPEGKTSAVVLADGATIVANPISNPFSAAPAATTVVQTHSQSASTNAPAQGSSPRPSILRKKPATDGAKPKSEIHVSMATPVTVSMETVSNQNNDQPTIAVPPTAQQPPPTIPTMIAAASPPSQPAVALSTIPGAVPITPPITTIAAAPPPSVTVGGSLSSVLGPPVPEIKVKEEVEPMDIMRPVSAVPPLATNTVSPSLALLANNLSMPTSDLPPGASPRKKPRKQQHVISTEEGDMMETNSTDDEKSTAKSLLVKAEKRKSPPKEYIDEEGVRYVPVRPRPPITLLRHYRNPWKAAYHHFQRYSDVRVKEEKKAMLQEIANQKGVSCRAQGWKVHLCAAQLLQLTNLEHDVYERLTNLQEGIIPKKKAATDDDLHRINELIQGNMQRCKLVMDQISEARDSMLKVLDHKDRVLKLLNKNGTVKKVSKLKRKEKV	binds

The next lines start with the values.

binding	Molecule
binds	HDAC1, endogenous in MDA-MB-231 cells (from UniProt Q13547 1-482) (enzyme)
binds	HDAC2, endogenous in MDA-MB-231 cells (from UniProt Q92769 1-488) (enzyme)

No constants are given. Whether binding was seen depends on the method and setting. Binding seen in cells or lysates may run through a third protein. A yes stands for co-enrichment or nearness to the bait. Other partners may have been found. Tags and fused reporters may be left off the sequences shown.
